# At least one structure is not confirmed: it was looked up by name or label, or the drawing left a doubt.
# Amino acid sequences for entries named in this document (tags omitted). Residues count along the entry.
# UniProt P15104, 2-373 limits assumed: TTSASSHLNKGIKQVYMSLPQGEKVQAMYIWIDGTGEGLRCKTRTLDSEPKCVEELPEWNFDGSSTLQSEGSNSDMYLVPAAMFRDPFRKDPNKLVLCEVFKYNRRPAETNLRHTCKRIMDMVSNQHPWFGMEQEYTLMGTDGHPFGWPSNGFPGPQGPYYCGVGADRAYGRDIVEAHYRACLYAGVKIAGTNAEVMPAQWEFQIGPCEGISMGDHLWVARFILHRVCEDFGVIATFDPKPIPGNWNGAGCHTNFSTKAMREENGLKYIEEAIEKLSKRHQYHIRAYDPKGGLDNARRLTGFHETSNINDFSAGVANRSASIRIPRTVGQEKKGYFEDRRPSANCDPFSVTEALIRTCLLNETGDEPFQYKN
# UniProt P15104, whole entry: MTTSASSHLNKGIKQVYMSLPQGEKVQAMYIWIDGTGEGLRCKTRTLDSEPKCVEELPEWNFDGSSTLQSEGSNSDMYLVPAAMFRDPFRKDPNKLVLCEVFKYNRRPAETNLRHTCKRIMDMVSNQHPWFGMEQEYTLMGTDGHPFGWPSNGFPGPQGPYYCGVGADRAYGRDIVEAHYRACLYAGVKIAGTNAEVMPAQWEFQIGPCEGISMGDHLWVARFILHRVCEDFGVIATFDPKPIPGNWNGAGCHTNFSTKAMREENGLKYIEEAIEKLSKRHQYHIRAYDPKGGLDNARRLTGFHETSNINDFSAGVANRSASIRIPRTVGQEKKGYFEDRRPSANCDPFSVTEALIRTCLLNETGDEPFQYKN
# Columns and labels:
# [1] = target: T1, 42 kD protein found in the cerebral spinal fluid from Alzheimer's disease patients (Homo sapiens, UniProt P15104); assay: Photoaffinity labeling (photoinsertion) of the 42 kD protein in cerebral spinal fluid from Alzheimer's disease patients; assay type: binding; settings: 42 kD CSF protein; ligand at 10 mM, in the presence of excess ammonium bicarbonate
# T1 construct: 42 kD protein found in the cerebral spinal fluid from Alzheimer's disease patients; from tissue; host or cells: cerebral spinal fluid of Alzheimer's disease patients
# Description: Each assay was performed on 15 μl of cerebral spinal fluid. Although the amount of cerebral spinal fluid tested remained constant for each experiment, the protein concentration of each sample varied to some degree.
# Each cerebral spinal fluid sample was photolabeled with [^32 P]8N3 ATP to identify the 42,000 Mr protein. The cerebral spinal fluid sample was comprised of cerebral spinal fluid, buffer, and water. The photoprobes used in each experiment were prepared by the inventor according to the procedures disclosed by Potter and Haley in Meth. in Enzymol., 91:613-633 (1983). Probes were also available commercially through ICN Radiochemicals 2727 Campus Drive, Irvine, Calif. 92715.
# (§1) In each experiment, photoprobe was added to the cerebral spinal fluid sample and vortexed for 6 seconds. Each treated sample was then allowed to mix for an additional 24 seconds at room temperature before exposure to ultraviolet (UV) light.
# The treated samples were placed on ice and exposed to UV light for 45 seconds. […]
# The quantity of protein, as well as the amount of the radioactivity incorporated into each protein, was quantified by densitometric scans of the exposed X-ray film, or of the stained gel, or by liquid scintillation spectrometry of the protein band excised from the gel. Significance was determined by analysis of variance at a rho level below […]. […]
# [2] = target: T2, Purified GS (glutamine synthetase) (Homo sapiens, UniProt P15104); assay: Photoaffinity labeling (photoinsertion) of purified glutamine synthetase; assay type: binding, sheep; settings: ligand at 10 mM, in the presence of excess ammonium bicarbonate
# T2 construct: purified from sheep brain; purchased Sigma; host or cells: sheep brain
# Description: as §1
# The treated samples were placed on ice and exposed to UV light for 45 seconds. The UV light source, a hand-held UV lamp with an intensity of 6200 μW/cm^2, was positioned 1 cm from the sample. The UV activation of the photoprobe labeled samples was always conducted at 0° C.
# Each sample was fractionated by 10% SDS-PAGE, run over a period of 21/2 to 3 hours, with constant amperage of 35 mA and an initial voltage of 140 volts. Since all of the proteins were very well separated on a 10% gel, a gradient was not necessary.
# The quantity of protein, as well as the amount of the radioactivity incorporated into each protein, was quantified by densitometric scans of the exposed X-ray film, or of the stained gel, or by liquid scintillation spectrometry of the protein band excised from the gel. Significance was determined by analysis of variance at a rho level below […].
# 1. Purified GS (purchased from Sigma, purified from sheep brain) comigrated on SDS-PAGE identically with the 42,000 Mr protein in the cerebral spinal fluid from Alzheimer's disease patients.
# 2. […]
compound,measurement,setting,value
O=C(O)CCCC(=O)O [glutarate],effect on binding/photolabeling by [32P]2N3 ATP,[1],slightly decreased
same,effect on binding/photolabeling by [32P]2N3 ATP,[2],slightly decreased

# From US5445937A, “Detection of Alzheimer's disease and other diseases using an improved photoaffinity labeling method” (The University of Kentucky Research Foundation, priority 1993, dated 1995)
